Source: paper PMC11538695
No constants are given. Whether binding was seen depends on the method and setting. Some results given as binding are weak or reduced against the parent protein; the word gives no strength. For some of these results: Sequences can lack the tags named with a protein. Blank lines part the entries; values can stand above or below the binder they belong to.

Assays:
[1] = target: T1, MBP-tagged syntaxin5 (residues 55-330) (human) (UniProt Q13190); experiment: SEC; pellets of separately expressed SNARE proteins mixed and lysed together, amylose resin by MBP-syntaxin5, then UNIONDEX 200PG gel filtration with SDS-PAGE; 50 mM Tris-HCl pH 7.5, 100 mM NaCl, 1 mM DTT
T1 sequence: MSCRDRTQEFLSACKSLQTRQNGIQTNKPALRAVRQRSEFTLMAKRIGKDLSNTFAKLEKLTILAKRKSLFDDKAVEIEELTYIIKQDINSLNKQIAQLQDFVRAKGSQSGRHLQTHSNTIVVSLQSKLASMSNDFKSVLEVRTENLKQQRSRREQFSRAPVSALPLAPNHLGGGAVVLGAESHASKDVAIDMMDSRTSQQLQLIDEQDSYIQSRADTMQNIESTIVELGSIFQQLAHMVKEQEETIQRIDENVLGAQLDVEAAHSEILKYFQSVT

[2] = target: full-length human VCPIP1 (Valosin-Containing Protein-Interacting Protein, p135) (human) (UniProt Q96JH7); experiment: cryo-EM structure; full-length VCPIP1-P97/VCP complex reconstituted by size exclusion chromatography; no ATP added; 3.45 Å; both purified

binding [1]: binds
B1: His6-tagged GosR1 (residues 150-230) (domain or fragment, UniProt O95249 150-230)
chain: KSGSGVNNRRTELFLKEHDHLRNSDRLIEETISIAMATKENMTSQRGMLKSIHSKMNTLANRFPAVNSLIQRINLRKRRDS

binding [1]: binds
B2: His6-tagged Bet1 (residues 1-93) (domain or fragment, UniProt O15155 1-93)
chain: MRRAGLGEGVPPGNYGNYGYANSGYSACEEENERLTESLRSKVTAIKSLSIEIGHEVKTQNKLLAEMDSQFDSTTGFLGKTMGKLKILSRGSQ

binding [2]: no binding
B3: full-length human VCPIP1 (Valosin-Containing Protein-Interacting Protein, p135) (enzyme, UniProt Q96JH7 1-1222)
chain: MSQPPPPPPPLPPPPPPPEAPQTPSSLASAAASGGLLKRRDRRILSGSCPDPKCQARLFFPASGSVSIECTECGQRHEQQQLLGVEEVTDPDVVLHNLLRNALLGVTGAPKKNTELVKVMGLSNYHCKLLSPILARYGMDKQTGRAKLLRDMNQGELFDCALLGDRAFLIEPEHVNTVGYGKDRSGSLLYLHDTLEDIKRANKSQECLIPVHVDGDGHCLVHAVSRALVGRELFWHALRENLKQHFQQHLARYQALFHDFIDAAEWEDIINECDPLFVPPEGVPLGLRNIHIFGLANVLHRPIILLDSLSGMRSSGDYSATFLPGLIPAEKCTGKDGHLNKPICIAWSSSGRNHYIPLVGIKGAALPKLPMNLLPKAWGVPQDLIKKYIKLEEDGGCVIGGDRSLQDKYLLRLVAAMEEVFMDKHGIHPSLVADVHQYFYRRTGVIGVQPEEVTAAAKKAVMDNRLHKCLLCGALSELHVPPEWLAPGGKLYNLAKSTHGQLRTDKNYSFPLNNLVCSYDSVKDVLVPDYGMSNLTACNWCHGTSVRKVRGDGSIVYLDGDRTNSRSTGGKCGCGFKHFWDGKEYDNLPEAFPITLEWGGRVVRETVYWFQYESDSSLNSNVYDVAMKLVTKHFPGEFGSEILVQKVVHTILHQTAKKNPDDYTPVNIDGAHAQRVGDVQGQESESQLPTKIILTGQKTKTLHKEELNMSKTERTIQQNITEQASVMQKRKTEKLKQEQKGQPRTVSPSTIRDGPSSAPATPTKAPYSPTTSKEKKIRITTNDGRQSMVTLKSSTTFFELQESIAREFNIPPYLQCIRYGFPPKELMPPQAGMEKEPVPLQHGDRITIEILKSKAEGGQSAAAHSAHTVKQEDIAVTGKLSSKELQEQAEKEMYSLCLLATLMGEDVWSYAKGLPHMFQQGGVFYSIMKKTMGMADGKHCTFPHLPGKTFVYNASEDRLELCVDAAGHFPIGPDVEDLVKEAVSQVRAEATTRSRESSPSHGLLKLGSGGVVKKKSEQLHNVTAFQGKGHSLGTASGNPHLDPRARETSVVRKHNTGTDFSNSSTKTEPSVFTASSSNSELIRIAPGVVTMRDGRQLDPDLVEAQRKKLQEMVSSIQASMDRHLRDQSTEQSPSDLPQRKTEVVSSSAKSGSLQTGLPESFPLTGGTENLNTETTDGCVADALGAAFATRSKAQRGNSVEELEEMDSQDAEMTNTTEPMDHS

binding [1]: binds
B4: His6-tagged Ykt6 (residues 1-193) (domain or fragment, UniProt O15498 1-193)
chain: MKLYSLSVLYKGEAKVVLLKAAYDVSSFSFFQRSSVQEFMTFTSQLIVERSSKGTRASVKEQDYLCHVYVRNDSLAGVVIADNEYPSRVAFTLLEKVLDEFSKQVDRIDWPVGSPATIHYPALDGHLSRYQNPREADPMTKVQAELDETKIILHNTMESLLERGEKLDDLVSKSEVLGTQSKAFYKTARKQNS
